Assay results: PubChem BioAssay AID1347076 (National Center for Advancing Translational Sciences (NCATS), 2019)
Where “and” joins values, the source holds several entries; their conditions need not be identical. Equal entries are not always repeated. Screen size: about 400,000 compounds; about 13,000 (3.2%) were called active. Inconclusive means that the source gave no clear call. Such entries were picked first, then a sample of the others. Calls come from the whole dose curve; as a rule, active = well fitted cell-killing curve with a large enough effect; inconclusive = small, poorly fitted or top-dose-only effect, or effect the other way; inactive = flat fitted curve, though single readings scatter. Potencies beside an inconclusive call are fits to weak or partial responses and may not hold up.

Assay: qHTS assay for MDR1-selective chemotherapeutics: Primary screen using the drug-selected MDR subline cells KB-V1; note: nearly all actives have a fitted effect of over 60% in size
Conditions: KB-V1 MDR cells viability, CellTiter-Glo, 72 h; activity change, negative = cytotoxicity: at 46.1 µM (top of the series)
Method in brief: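 KB-V1, DMEM (no phenol red) + 10% FBS; cpd pin-transferred, titration series; 72 h, 37 degrees C; CellTiter-Glo, luminescence. Data normalized, curve-fit.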
% is set by controls: 0 for no effect and ±100 for the full control effect; potency is the fitted concentration of half-maximal effect.

| SMILES | activity change, negative = cytotoxicity | Potency |
| --- | --- | --- |
| Cc1ccc(Cc2c(-c3ccccc3)nc3c4ccccc4ccn23)cc1 | inactive: -14.1% | – |
| Cc1cnc(NC(=O)CSCc2c(C)noc2C)s1 | – | inconclusive: 2.91 µM [rising, partial curve, poor fit] |
| COc1cc(/C=C2/SC(=S)N(Cc3ccccc3)C2=O)ccc1O | inactive: -16% | – |
| COc1ccc(N(Cc2cc3cc(OC)ccc3[nH]c2=O)C(=O)c2cccc(Cl)c2)cc1 | – | inconclusive: 23.1 µM [rising, single point] |
| COc1ccc(OC)c(CNC(=O)c2cc3c(=O)oc4ccc(C)cc4c3s2)c1 | – | inconclusive: 18.4 µM [rising, single point] |
| COc1ccc(C(c2nnnn2Cc2cccs2)N2CCN(c3ccccc3F)CC2)cc1OC (stereo not given) | – | inconclusive: 10 µM [cytotoxic, partial curve, poor fit] |
| COc1cc(N)c2ncccc2c1Cl | – | inconclusive: 29.1 µM [cytotoxic, single point] |
| COc1ccc(NC(=O)C2CCCN(S(=O)(=O)c3cccc4cccnc34)C2)cc1 (stereo not given) | – | inconclusive: 25.9 µM [cytotoxic, single point] |
| CCNC(=O)NCc1c(C)c(C)n(Cc2ccccc2)c1-n1cccc1 | – | inconclusive: 32.6 µM [rising, single point] |
| COc1ccc(-c2oc3ncn4nc(-c5ccccc5OC)nc4c3c2-c2ccc(OC)cc2)cc1 | inactive: 16.6% | – |
| CC(C)Cn1c(N)c(C(=O)COC(=O)Cc2cccc(C(F)(F)F)c2)c(=O)n(C)c1=O | – | inconclusive: 0.0073 µM [cytotoxic, full curve] |
| COc1cccc(CNC(=O)Nc2cn(CC(C)C)c(=O)c3ccccc23)c1 | inconclusive: 35.9% | – |
| COc1ccc(OCc2ccc(-c3nc(C#N)c(NCc4ccc(F)cc4)o3)o2)cc1 | inactive: -7.39% | – |
| COc1ccc(S(=O)(=O)N(CC(=O)N2CCOCC2)Cc2ccccc2)cc1C | – | active: 2.91 µM |
| Cc1ccc2nccnc2c1 | – | active: 16.4 µM |
| COc1ccccc1C(=O)Nc1ccc(Br)cc1C | – | inconclusive: 20.6 µM [cytotoxic, single point] |
| COc1ccc(C2C(C(=O)Nc3ccc(OC)c(OC)c3)c3ccccc3C(=O)N2C)cc1 (stereo not given) | – | inconclusive: 13 µM [cytotoxic, partial curve, poor fit] |
| CCOC(=O)c1cccnc1SCc1cc(=O)n2ccccc2n1 | – | inconclusive: 16.4 µM [cytotoxic, partial curve, poor fit] |
| O=C(CN1CCN(c2nc(-c3ccc(F)cc3)cs2)CC1)NCc1ccc2c(c1)OCO2 | – | inconclusive: 29.1 µM [cytotoxic, single point] |
| COCCOC(=O)c1[nH]c2c(c1C)C(=O)CC(c1ccc(N(C)C)cc1)C2 (stereo not given) | inactive: -4.01% | – |
| O=C(CSCc1ccccc1)N1CCN(S(=O)(=O)c2cccc(F)c2)CC1 | – | inconclusive: 2.59 µM [cytotoxic, partial curve, poor fit] |
| CC1CCN(c2c(NCC3CCC(C(=O)NCCC4=CCCCC4)CC3)c(=O)c2=O)CC1 (stereo not given) | – | inconclusive: 2.59 µM [rising, full curve, poor fit] |
| C=CCn1c(N)c(C(=O)NCC2CCCO2)c2nc3ccccc3nc21 (stereo not given) | – | inconclusive: 9.2 µM [cytotoxic, partial curve] |
| O=C(CN(c1ccc2c(c1)OCCO2)S(=O)(=O)c1ccccc1)NCc1ccc(Cl)cc1 | – | active: 3.66 µM |

| SMILES | activity change, negative = cytotoxicity | Potency |
| --- | --- | --- |
| Nc1[nH]c(=S)[nH]c(=O)c1N | inactive: 7.16% | – |
| Cc1cc(C(=O)COc2ccccc2C(N)=O)c(C)n1CC1CCCO1 (stereo not given) | – | active: 4.61 µM |
| Cn1c(CNC(=O)CSc2nc(-c3ccccc3F)nc3cc(=O)[nH]n23)nc2ccccc21 | – | inconclusive: 29.1 µM [rising, single point] |
| COc1cc(C2=NOC(C(=O)NCc3ccco3)C2)cc(OC)c1OC (stereo not given) | – | active: 2.91 µM |
| CC(C)c1ccc(-c2noc(SCC(=O)N3CCN(c4ccccc4F)CC3)n2)cc1 | inactive: -0.96% | – |
| Cc1cccc(C(=O)NC(=S)NNC(=O)c2cccs2)c1 | – | inconclusive: 10.3 µM [cytotoxic, partial curve] |
| Cc1cc(C)cc(C(=O)NC2C(=O)N3C(C(=O)O)=C(CSc4nnc(C)s4)CSC23)c1 (stereo not given) | – | inconclusive: 16.4 µM [rising, single point] |
| Cc1ccc(C(=O)N2CC(C)OC(C)C2)cc1S(=O)(=O)N1CCCCC1 (stereo not given) | – | inconclusive: 29.1 µM [cytotoxic, partial curve, poor fit] |
| CN1CCN(S(=O)(=O)c2ccc(NC(=S)NC(=O)c3ccc(Cl)cc3)cc2)CC1 | – | inconclusive: 16.4 µM [cytotoxic, partial curve, poor fit] |
| CCS(=O)(=O)N1Cc2ccccc2CC1C(=O)N1CCN(c2ccccc2)CC1 (stereo not given) | – | active: 10.3 µM |
| CCOC(=O)c1cnc2ccc(OC)cc2c1NCCN1CCOCC1 | inactive: -2.58% | – |
| COc1cc(-c2noc(C)c2/C=C/c2ccc(OC(C)=O)cc2)cc(OC)c1OC | – | active: 1.3 µM and inconclusive: 326 nM [cytotoxic, full curve, poor fit] |
| C=CCn1c(SCC(=O)NCC2CCCO2)nc2c([nH]c3ccccc32)c1=O (stereo not given) | inactive: 6.15% | – |
| NC(=O)CC1C(=O)N(c2ccccc2)C(=S)N1NC(=O)c1ccc(Br)cc1 (stereo not given) | – | inconclusive: 8.2 µM [rising, partial curve, poor fit] |
| CCN(CC)S(=O)(=O)c1ccc(C(=O)NC(=S)N(CCC#N)Cc2cccnc2)cc1 | – | inconclusive: 16.4 µM [rising, single point] |
| CC1=C(C#N)C2C(/C1=N/O)C2(C)C (stereo not given) | – | inconclusive: 29.1 µM [cytotoxic, single point] |
| CCc1nccn1C(=O)c1cnn2c(C(F)F)cc(-c3ccc(C)cc3)nc12 | – | inconclusive: 8.2 µM [cytotoxic, partial curve] |
| Cc1ccc(NC(=O)Cn2c(=O)ccc3cc(S(=O)(=O)N4CCCC4)ccc32)cc1C | inactive: 17.8% | – |
| O=[N+]([O-])c1ccccc1-c1nc(-c2ccc(Br)o2)no1 | – | inconclusive: 13 µM [cytotoxic, partial curve] |
| CCCCNC(=S)Nc1ccc([N+](=O)[O-])cc1 | – | inconclusive: 29.1 µM [cytotoxic, single point] |
| CCOC(=O)/C(C#N)=C\C1=C(N2CCOCC2)CC(C)(C)OC1 | – | inconclusive: 3.66 µM [cytotoxic, partial curve, poor fit] |
| Cc1cc2nn(-c3ccc(F)cc3)nc2cc1NC(=O)c1ccc(C(C)(C)C)cc1 | inactive: -10.9% | – |
| CC1(c2nnc(Cc3ccccc3)o2)CC(c2ccc([N+](=O)[O-])cc2)=NO1 (stereo not given) | inactive: -1.36% | – |
| COc1cc(C(=O)N(C)CCOc2ccccc2)ccc1OCC(=O)Nc1cccc(C(F)(F)F)c1 | – | inconclusive: 5.8 µM [cytotoxic, full curve] |

Three entries from above, tab-delimited:
SMILES	activity change, negative = cytotoxicity	Potency
Cc1cc(C)cc(C(=O)NC2C(=O)N3C(C(=O)O)=C(CSc4nnc(C)s4)CSC23)c1 (stereo not given)	–	inconclusive: 16.4 µM [rising, single point]
CCc1nccn1C(=O)c1cnn2c(C(F)F)cc(-c3ccc(C)cc3)nc12	–	inconclusive: 8.2 µM [cytotoxic, partial curve]
CCOC(=O)/C(C#N)=C\C1=C(N2CCOCC2)CC(C)(C)OC1	–	inconclusive: 3.66 µM [cytotoxic, partial curve, poor fit]

The results go on.

| SMILES | activity change, negative = cytotoxicity | Potency |
| --- | --- | --- |
| CCc1nc(SCC(=O)Nc2ccc(F)cc2)c2c(=O)n(C)c(=O)n(C)c2n1 | – | inconclusive: 16.4 µM [cytotoxic, single point] |
| CCOC(=O)Cn1c(C(C)=O)nc2ccccc21 | – | inconclusive: 29.1 µM [rising, single point] |
| CN(C)c1ccc(/C=C2\CCCc3c2nc2ccccc2c3C(=O)O)cc1 | inactive: 5.05% | – |
| O=C(NC(=S)Nc1ccccc1N1CCCCC1)c1ccco1 | – | inconclusive: 16.4 µM [cytotoxic, single point] |
| CN1C(=O)CC(n2c(CO)nc3ccccc32)C1=O (stereo not given) | – | inconclusive: 29.1 µM [rising, single point] |
| COc1cc(S(=O)(=O)NC2CCCCC2C)ccc1-n1cnnn1 (stereo not given) | – | inconclusive: 20.6 µM [cytotoxic, partial curve] |
| Cc1cc(C)c(C2=NOC3C4CCC(C4)C23)c(C)c1 (stereo not given) | – | inconclusive: 29.1 µM [cytotoxic, partial curve, poor fit] |
| Cc1cc(C(=O)NNS(=O)(=O)c2cc(C(=O)O)ccc2Cl)c(C)n1-c1ccccc1 | inactive: -21.5% | – |
| CC(=O)c1cc(C#N)c(SCc2ccccc2C#N)nc1C | – | active: 10.3 µM |
| CCOC(=O)CSc1nnc(-c2ccc(OC)cc2)o1 | – | inconclusive: 29.1 µM [rising, single point] |
| Cc1ccc(CSc2nnc(SCC(=O)N/N=C/c3c[nH]c4ccccc34)s2)cc1 | inactive: -1.6% | – |
| Cc1cc(CN(C)C(=O)CC2C(=O)NCCN2Cc2ccc(-c3ccccc3)cc2)on1 (stereo not given) | inactive: -5.63% | – |
| O=C(Nc1cccc(F)c1)C1CCN(S(=O)(=O)c2cccc3nonc23)CC1 | – | inconclusive: 25.9 µM [cytotoxic, single point] |
| CC(C)OCCCNC(=O)CN1C(=O)/C(=C/c2ccccc2)Sc2ccccc21 | – | inconclusive: 20.6 µM [cytotoxic, partial curve, poor fit] |
| Clc1ccc(C2=NNC(=NCc3ccccc3)SC2)cc1 | – | inconclusive: 18.4 µM [cytotoxic, single point] |
| O=C(Nc1ccc2c(c1)C(=O)OC2)c1ccccc1Cl | inactive: 5.84% | – |
| CCOC(=O)c1cccc(-n2c(C)cc(C=O)c2C)c1 | – | inconclusive: 29.1 µM [cytotoxic, single point] |
| CN(C(=O)CSc1nncn2c1cc1occc12)c1ccccc1 | inactive: 4.11% | – |
| CCOC(=O)c1ccc(Oc2c(C)oc3cc(OS(C)(=O)=O)ccc3c2=O)cc1 | – | inconclusive: 29.1 µM [cytotoxic, single point] |
| Cc1occc1C(=O)NC1CCCc2ccccc21 (stereo not given) | – | inconclusive: 29.1 µM [cytotoxic, single point] |
| CCOc1cccc(-c2nn3c(-c4ccco4)nnc3s2)c1 | – | active: 9.2 µM |
| CC(=O)c1c(C)n(-c2ccccc2)c2ccc(OCC(N)=O)cc12 | – | inconclusive: 18.4 µM [cytotoxic, single point] |
